From doi:10.1101/2023.02.19.529116
Results are given in words; binding and its absence hold for the method and conditions named. Some binding calls cover weakened binding; strength is not graded here. Tags and fused reporters may be left off the sequences shown.

By UniProt entry, the sequences of proteins in these tests, tags left out.
UniProt Q32KD4: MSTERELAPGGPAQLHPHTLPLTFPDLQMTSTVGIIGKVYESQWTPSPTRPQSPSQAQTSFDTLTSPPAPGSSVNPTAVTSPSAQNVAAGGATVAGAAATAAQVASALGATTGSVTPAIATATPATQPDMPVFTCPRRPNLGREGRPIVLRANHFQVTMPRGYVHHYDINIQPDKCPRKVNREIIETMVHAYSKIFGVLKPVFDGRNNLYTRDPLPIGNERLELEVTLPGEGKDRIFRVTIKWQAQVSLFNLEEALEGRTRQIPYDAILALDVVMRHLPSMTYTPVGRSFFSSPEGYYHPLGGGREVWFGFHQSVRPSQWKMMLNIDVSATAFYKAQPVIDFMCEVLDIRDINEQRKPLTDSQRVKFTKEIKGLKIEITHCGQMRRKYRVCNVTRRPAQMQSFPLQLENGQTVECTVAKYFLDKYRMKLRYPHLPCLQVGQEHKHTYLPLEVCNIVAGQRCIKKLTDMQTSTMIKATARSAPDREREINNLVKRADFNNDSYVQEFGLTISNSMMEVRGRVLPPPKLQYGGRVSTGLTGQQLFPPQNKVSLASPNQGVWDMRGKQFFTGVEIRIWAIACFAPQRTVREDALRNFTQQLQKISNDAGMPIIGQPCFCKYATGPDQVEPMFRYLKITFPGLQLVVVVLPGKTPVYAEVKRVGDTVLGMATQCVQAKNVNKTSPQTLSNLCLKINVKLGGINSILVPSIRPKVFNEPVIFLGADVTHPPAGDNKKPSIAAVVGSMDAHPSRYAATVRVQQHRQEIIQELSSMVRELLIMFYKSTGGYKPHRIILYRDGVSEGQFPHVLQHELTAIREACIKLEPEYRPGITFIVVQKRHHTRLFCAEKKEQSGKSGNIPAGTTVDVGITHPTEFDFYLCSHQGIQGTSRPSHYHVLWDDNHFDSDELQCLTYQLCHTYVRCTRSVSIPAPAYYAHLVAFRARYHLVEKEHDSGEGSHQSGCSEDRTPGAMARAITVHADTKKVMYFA
UniProt P92177: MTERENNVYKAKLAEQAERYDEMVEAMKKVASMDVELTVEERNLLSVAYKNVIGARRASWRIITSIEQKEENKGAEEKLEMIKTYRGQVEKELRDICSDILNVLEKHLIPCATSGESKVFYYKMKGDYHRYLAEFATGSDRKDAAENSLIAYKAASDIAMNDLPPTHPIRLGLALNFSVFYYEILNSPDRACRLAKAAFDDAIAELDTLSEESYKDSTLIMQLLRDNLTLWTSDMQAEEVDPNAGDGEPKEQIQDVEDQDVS

Target: T1, PH-EGFP-Smaug (Drosophila) (UniProt Q23972)
T1 sequence: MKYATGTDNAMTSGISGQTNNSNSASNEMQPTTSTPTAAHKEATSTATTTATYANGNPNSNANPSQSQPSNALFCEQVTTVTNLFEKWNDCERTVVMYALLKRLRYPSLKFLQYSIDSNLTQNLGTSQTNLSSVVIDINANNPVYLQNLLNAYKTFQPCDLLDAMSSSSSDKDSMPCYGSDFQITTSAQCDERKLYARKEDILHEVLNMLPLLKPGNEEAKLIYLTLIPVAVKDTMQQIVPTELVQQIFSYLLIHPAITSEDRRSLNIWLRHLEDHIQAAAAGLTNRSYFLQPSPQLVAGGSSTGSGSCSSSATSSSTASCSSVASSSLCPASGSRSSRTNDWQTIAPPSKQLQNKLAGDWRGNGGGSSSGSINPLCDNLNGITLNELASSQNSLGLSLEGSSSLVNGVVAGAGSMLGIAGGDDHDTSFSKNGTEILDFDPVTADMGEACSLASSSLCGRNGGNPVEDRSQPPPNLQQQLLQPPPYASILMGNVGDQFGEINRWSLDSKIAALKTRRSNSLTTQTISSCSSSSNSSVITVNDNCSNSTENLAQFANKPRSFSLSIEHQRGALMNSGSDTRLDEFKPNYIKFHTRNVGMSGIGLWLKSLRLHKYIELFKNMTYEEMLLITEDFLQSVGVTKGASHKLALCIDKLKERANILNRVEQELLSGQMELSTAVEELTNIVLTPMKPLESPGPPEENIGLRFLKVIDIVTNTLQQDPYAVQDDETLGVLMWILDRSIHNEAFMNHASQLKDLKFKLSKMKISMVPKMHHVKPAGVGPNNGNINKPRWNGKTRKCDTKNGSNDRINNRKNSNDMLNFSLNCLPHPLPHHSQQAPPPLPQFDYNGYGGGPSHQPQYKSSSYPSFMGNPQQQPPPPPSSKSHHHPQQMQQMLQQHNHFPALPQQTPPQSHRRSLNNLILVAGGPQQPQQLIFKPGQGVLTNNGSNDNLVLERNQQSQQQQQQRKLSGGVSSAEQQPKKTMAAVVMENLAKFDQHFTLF
Assay: ReLo

Substance	binding
Ago1 (from UniProt Q32KD4 1-984)	no binding
14-3-3ε (from UniProt P92177 1-262)	binds
